From paper PMC11792593
These are yes or no findings as the source states them, for the method shown. In cells and extracts the contact can be indirect. Here binding means that the protein was enriched with, or labelled near, the bait; the list need not be complete.

By UniProt entry, the sequences of proteins in these tests, tags left out.
UniProt Q04206: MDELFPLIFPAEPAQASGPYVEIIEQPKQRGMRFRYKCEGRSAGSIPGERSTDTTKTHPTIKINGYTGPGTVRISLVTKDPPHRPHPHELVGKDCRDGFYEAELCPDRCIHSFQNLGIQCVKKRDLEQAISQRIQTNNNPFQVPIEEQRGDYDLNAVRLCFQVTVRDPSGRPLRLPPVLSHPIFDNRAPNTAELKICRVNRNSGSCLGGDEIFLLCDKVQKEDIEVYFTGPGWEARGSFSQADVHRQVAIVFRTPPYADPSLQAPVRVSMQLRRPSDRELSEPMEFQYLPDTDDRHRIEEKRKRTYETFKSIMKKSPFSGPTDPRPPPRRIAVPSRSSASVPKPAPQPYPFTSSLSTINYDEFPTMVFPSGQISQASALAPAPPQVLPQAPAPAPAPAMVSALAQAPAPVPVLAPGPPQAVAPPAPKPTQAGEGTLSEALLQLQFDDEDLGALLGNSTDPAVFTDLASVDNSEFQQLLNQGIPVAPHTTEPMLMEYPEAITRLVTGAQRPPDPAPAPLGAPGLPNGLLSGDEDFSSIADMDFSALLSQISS

Tests used:
[1] = target: T1, EDF1 (endogenous, NC/control neuroblastoma cells) (human (endogenous in NB cell lines)) (UniProt O60869); assay: affinity purification with mass spectrometry; EDF1-binding proteins immunoprecipitated by anti-EDF1 antibody from NB cells (NC and EDF1-overexpressed), followed by mass spectrometry
T1 sequence: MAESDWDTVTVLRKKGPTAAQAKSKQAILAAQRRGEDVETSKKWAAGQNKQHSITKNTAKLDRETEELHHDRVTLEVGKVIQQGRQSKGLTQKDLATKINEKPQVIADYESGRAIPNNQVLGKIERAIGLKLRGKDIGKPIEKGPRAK

[2] = target: T2, EDF1, full-length, overexpressed in NB cells (pcDNA3.1) (human) (UniProt O60869); assay: as above
T2 sequence: T1 sequence

binding [1]: binds | binding [2]: binds
Substance: NF-κB p65/RelA (from UniProt Q04206 1-551)
